# Results are given in words; binding and its absence hold for the method and conditions named. In cells and extracts the contact can be indirect. A result given as binding can be weak or reduced; the word gives no strength.
# The chains behind the UniProt entries cited, without tags or fusion partners. Where a name states a change or a piece, a line headed by the entry shows the natural chain unless it says otherwise.
# UniProt P05556: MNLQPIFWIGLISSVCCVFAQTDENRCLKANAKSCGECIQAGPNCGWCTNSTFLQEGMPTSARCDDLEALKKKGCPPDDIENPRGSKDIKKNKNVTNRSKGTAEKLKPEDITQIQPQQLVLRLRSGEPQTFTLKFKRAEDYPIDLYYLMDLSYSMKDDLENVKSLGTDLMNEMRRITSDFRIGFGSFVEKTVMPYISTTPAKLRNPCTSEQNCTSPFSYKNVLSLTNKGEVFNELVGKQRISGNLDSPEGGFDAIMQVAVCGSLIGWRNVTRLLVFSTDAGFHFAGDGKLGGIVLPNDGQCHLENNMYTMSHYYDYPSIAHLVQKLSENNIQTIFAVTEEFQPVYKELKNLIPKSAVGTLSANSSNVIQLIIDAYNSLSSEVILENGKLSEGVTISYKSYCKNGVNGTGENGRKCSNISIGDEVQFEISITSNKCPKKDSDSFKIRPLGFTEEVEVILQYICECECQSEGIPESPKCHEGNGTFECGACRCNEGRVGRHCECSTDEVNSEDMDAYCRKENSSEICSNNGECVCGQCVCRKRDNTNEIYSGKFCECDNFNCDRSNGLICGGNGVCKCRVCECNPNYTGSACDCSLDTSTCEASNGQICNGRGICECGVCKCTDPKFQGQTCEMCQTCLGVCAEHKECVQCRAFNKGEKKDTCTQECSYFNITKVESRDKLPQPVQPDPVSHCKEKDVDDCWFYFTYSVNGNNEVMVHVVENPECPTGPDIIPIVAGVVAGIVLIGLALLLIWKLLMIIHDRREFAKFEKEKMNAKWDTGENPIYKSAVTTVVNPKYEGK
# UniProt Q8IZW8: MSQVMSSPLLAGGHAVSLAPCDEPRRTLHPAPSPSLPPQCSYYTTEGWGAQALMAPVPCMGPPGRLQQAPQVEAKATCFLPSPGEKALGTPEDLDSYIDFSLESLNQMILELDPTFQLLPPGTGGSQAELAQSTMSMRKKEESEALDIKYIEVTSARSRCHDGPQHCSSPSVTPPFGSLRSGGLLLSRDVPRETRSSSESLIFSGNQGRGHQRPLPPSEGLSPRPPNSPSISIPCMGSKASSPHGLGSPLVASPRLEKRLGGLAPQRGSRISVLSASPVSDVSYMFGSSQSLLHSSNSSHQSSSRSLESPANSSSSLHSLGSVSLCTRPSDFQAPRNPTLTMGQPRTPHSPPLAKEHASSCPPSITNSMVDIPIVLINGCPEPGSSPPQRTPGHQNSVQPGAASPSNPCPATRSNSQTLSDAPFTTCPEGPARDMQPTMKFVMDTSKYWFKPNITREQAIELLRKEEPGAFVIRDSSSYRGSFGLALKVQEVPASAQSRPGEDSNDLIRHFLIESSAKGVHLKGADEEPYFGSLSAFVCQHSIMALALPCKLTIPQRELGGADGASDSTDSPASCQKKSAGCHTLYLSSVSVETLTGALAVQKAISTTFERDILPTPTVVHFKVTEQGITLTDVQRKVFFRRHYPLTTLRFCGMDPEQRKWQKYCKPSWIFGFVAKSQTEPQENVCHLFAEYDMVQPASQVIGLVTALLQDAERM
# Biological target: integrin β1 (human (endogenous in HNSCC cell lines)) (UniProt P05556)
# Experiment: co-IP; HNSCC cells lysed in radioimmunoprecipitation assay buffer; supernatants incubated with primary antibodies or IgG control at 4°C overnight, then magnetic beads 8 h, western blotting; cells untreated or with TNS4 depletion (shTNS4/siTNS4), TNS4 overexpression or FAK inhibitor
substance,measurement,value
tensin 4 (TNS4) (from UniProt Q8IZW8),binding,binds
